From ChEMBL document CHEMBL3988442, “University of Dundee, Small-Polar-MMV Screening Library” (2021).

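Phenotypic screen: M. tuberculosis growth, glucose 7H9 medium, 3 days; the read-out is not stated. Tested at 500 µM. Direction is inferred from retests: higher values go with more growth inhibition. Of about 18,000 compounds tested this way, about 1,400 (7.9%) reached 50% or more in at least one test.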

Results are given as percent effect.
How 0% and 100% were set is not recorded. Most values in the screen are low, and negative values occur.
The compounds are a random part of those screened.

SMILES,effect
Cc1ccc(CN(C)C(=O)NCCC(=O)N(C)C)s1,-7.85
Cc1nn(CCO)c(C)c1CNC1CCCCNC1=O (configuration not stated),-4.254
CCOc1ccc(NC(=O)N2CCC(N)C2)cc1C#N (configuration not stated),39.6
CC(SCc1cccc(S(=O)(=O)N(C)C)c1)C(N)=O (configuration not stated),17.83
NCC(=O)N1CCN(c2ccccc2F)CC1,10.89
CN1CCC(CCNC(=O)c2cccs2)CC1,-8.207
Cc1c(C(=O)Nc2ccc(F)c(C(N)=O)c2)cnn1C,12.98
COCC1(CNC(=O)NCCC2(C)OCCO2)CCC1,10.82
CCC1=CS(=O)(=O)c2ccccc21,17.06
O=S(=O)(NC1CCCNC1)c1cccc(F)c1 (configuration not stated),-9.887
CCOC(=O)CNC(=O)c1ccc2c(c1)OCCO2,48.91
OCc1cccc2ncccc12,-10.37
NCc1ccc2c(c1)CCS2(=O)=O,-0.8839
CC(Nc1cc(=O)n(C)c(=O)n1C)c1ccccc1 (configuration not stated),20.09
Fc1cccnc1NCc1cccc2c1OCCCO2,4.645
CCC(C)Oc1cc(CN)ccn1 (configuration not stated),-5.909
CCC(C)NC(=O)c1ccc(CN)cc1 (configuration not stated),0.2834
CN(CCO)c1ccc(C(F)(F)F)cn1,20.37
CS(=O)(=O)CCOCCNC1CCCc2occc21 (configuration not stated),2.55
CCOc1cc(C)ccc1S(N)(=O)=O,39.48
CC(=O)N1CCC[C@H]1C(=O)Nc1ccncc1F,13.76
CNC(=O)C(C)(C)Oc1cccc(Cl)c1,68.29
Cn1cnnc1SCCNC(=O)Cc1cccnc1,-0.9918
OC1CCN(Cc2ccc3c(c2)CCC3)C1 (configuration not stated),60.61
CCCS(=O)(=O)NCC1CCCN1CCOC (configuration not stated),-1.874
Cc1nnc(CCNC(=O)C2CC(=O)N(C)C2(C)C)s1 (configuration not stated),-9.561
CCOC(=O)C(C)Nc1ccc2oc(=O)[nH]c2c1 (configuration not stated),44.54
COCCCNCc1ccc(OC)cc1,11.15
O=C1NCCCC1NC1CCSCC1 (configuration not stated),2.086
Nc1cnn(CC(=O)N2CC(N3CCCCC3)C2)c1,6.018
N#Cc1cnc(NCC2(O)CCC2)cn1,5.948
Nc1nc(C(=O)N[C@@H]2COCC[C@@H]2OCC2CC2)cs1,10.65
NCCCc1nc(-c2ccccn2)cs1,34.19
COc1cc(CCN)ccc1F,36.81
CCc1ccc(S(=O)(=O)N2CC[C@@H](N)C2)cc1CC,73.3
C=C(C)Cn1nc(C)c(C)c(C#N)c1=O,-1.619
COCC(NC(=O)c1c(C)cc(C)cc1C)C(N)=O (configuration not stated),7.734
CC(N)C(=O)Nc1nc(-c2ccc(O)cc2)cs1 (configuration not stated),44.51
CS(=O)(=O)c1cccc(NC(=O)c2cnccn2)c1,-14.9
COCCCn1ccc(Nc2ncccc2C#N)n1,5.021
CN(C)c1ccc(CN2CCN(C)C(CO)C2)cn1 (configuration not stated),8.609
COc1cc(CCC(=O)Nc2nnc[nH]2)cc(OC)c1,-3.659
CCNC(=O)CCC(=O)N(C1CC1)C(C)c1ccco1 (configuration not stated),15.51
CNCC1(O)CCCC1,-6.772
CN(CC(=O)Nc1nccs1)C(=O)c1ccccc1,2.977
Cc1nccn1-c1ccc(C(C)N)cc1F (configuration not stated),6.675
CNC(=O)CCCN(C)Cc1c(F)cccc1F,-2.621
CNc1ccnc(C(N)=O)c1,-11.02
CCc1ccsc1C(=O)NCC1CN(C)CCO1 (configuration not stated),24.71
O=C(NCC1(O)CCNC1)c1cccc(OC(F)F)c1 (configuration not stated),46.76
COCC1CCCN(Cc2nnc(C(C)C)o2)C1 (configuration not stated),29.66
CCCN1CCN(C(=O)COc2ccccc2)CC1,50.36
OCc1cc(N2CCC(O)CC2)ccn1,3.285
OC1(CN2CCCCC2)CCN(Cc2c[nH]cn2)C1 (configuration not stated),9.563
O=C(NC1CC1)NC1CCNC1 (configuration not stated),3.564
CN(C)S(=O)(=O)c1ccc(C(=O)N2CCCC2)cc1,-2.902
CNC(=O)NC(=O)C(C)Nc1cccc(C)c1 (configuration not stated),58.02
CCc1nnc(CNC(=O)c2nnc(C(C)C)s2)o1,18.11
O=C(NCc1ccccn1)n1ccnc1,-73.5
CN(C)C(=O)CN(C)S(=O)(=O)c1ccccc1Cl,18.64
CCCC(N)CNS(=O)(=O)c1cc(F)cc(F)c1 (configuration not stated),18.65
CNc1ncccc1N,-228.5
CC(=O)Nc1ccc(C2=NN=C(NC(C)C)SC2)cc1,37.65